Structures can show the parent of a compound that is named as a salt. Out of some 1,200 compounds screened, about 50 (4%) showed activity. No stated cut-off is given here; in the data, all actives reach 1.3 or more but so do some inactives. The list shows a part of the results.
tested on: Lgr5 (MarsCy1-Lgr5-EGFP, U2OS); assay: cell-surface Lgr5 expression (SCi1 fluorescence, background-subtracted) relative to WT DMSO (fold of DMSO control); higher = more Lgr5 at the plasma membrane, active = hit call of the paper; settings: U2OS MarsCy1-Lgr5-EGFP stable; treatment time: overnight; 16 µM; library: Johns Hopkins Clinical Compound Library

| SMILES | cell-surface Lgr5 expression |
| --- | --- |
| Cn1c(=O)c2c(ncn2CC(=O)O)n(C)c1=O [Theophylline-7-acetic acid] | inactive: 1.14 |
| CSc1ccc(C(=O)c2[nH]c(=O)[nH]c2C)cc1 [Enoximone] | inactive: 1.12 |
| Cc1cc(C(=O)NNCc2ccccc2)no1 [Isocarboxazid] | inactive: 0.572 |
| COc1cc(OC)c(C(=O)CCCN2CCCC2)c(OC)c1 [Buflomedil] | inactive: 1.08 |
| N#CC(c1ccc(Cl)cc1)c1c(Cl)cc(-n2ncc(=O)[nH]c2=O)cc1Cl (configuration not stated) [Diclazuril] | inactive: 0.92 |
| CCN1C(=O)NC(c2ccccc2)C1=O (configuration not stated) [Ethotoin] | inactive: 0.854 |
| CN1CCC(=C2c3ccccc3CC(=O)c3sccc32)CC1 [Ketotifen] | inactive: 1.07 |
| COC(=O)c1ccccc1O [Methyl salicylate] | inactive: 0.981 |
| COc1ccc2c(c1)N(C[C@H](C)CN(C)C)c1ccccc1S2 [Methotrimeprazine] | inactive: 1.17 |
| OC(CCCN1CCC(O)(c2ccc(Cl)cc2)CC1)c1ccc(F)cc1 (configuration not stated) [Haloperidol metabolite II] | inactive: 1.18 |
| Cn1ccnc1S [Methimazole] | inactive: 0.738 |
| Nc1c(Br)cc(Br)cc1CN[C@H]1CC[C@H](O)CC1 [Ambroxol hydrochloride] | active: 1.54 |
| Oc1ccc(Cl)c2cccnc12 [Cloxyquin (5-chloro-8-hydroxy-quinoline)] | inactive: 0.745 |
| Nc1ncn([C@H]2C[C@H](O)[C@@H](CO)O2)c(=O)n1 [Decitabine (5-aza-2-deoxycytidine)] | active: 1.47 |
| CC(C)(C(=O)c1cccnc1)c1cccnc1 [Metyrapone (2-methyl-1,2-di-3-pyridyl 1-propanone)] | inactive: 0.848 |
| CCCC(=O)O[C@]1(C(=O)CCl)[C@H](C)C[C@@H]2[C@@H]3CCC4=CC(=O)C=C[C@]4(C)[C@]3(F)C(=O)C[C@@]21C [Clobetasone butyrate] | inactive: 1 |
| CC(=O)N(O)CCCCCNC(=O)CCC(=O)N(O)CCCCCNC(=O)CCC(=O)N(O)CCCCCN [Deferoxamine mesylate] | inactive: 0.865 |
| CC(C)/N=c1\cc2n(-c3ccc(Cl)cc3)c3ccccc3nc-2cc1Nc1ccc(Cl)cc1 [Clofazimine] | inactive: 1.55 |
| CCN[C@H]1C[C@H](C)S(=O)(=O)c2sc(S(N)(=O)=O)cc21 [Dorzolamide] | inactive: 0.632 |
| CO[C@@]1(NC(=O)CSCC#N)C(=O)N2C(C(=O)O)=C(CSc3nnnn3C)CS[C@@H]21 [Cefmetazole] | inactive: 0.929 |
| COc1ccc2[nH]c(I)c(CCNC(C)=O)c2c1 [2-Iodomelatonin] | inactive: 0.912 |
| C[C@@H]1[C@H](O)[C@@H](C)/C=C/C=C/C=C/C=C/C=C/C=C/C=C/[C@H](O[C@@H]2O[C@H](C)[C@@H](O)[C@H](N)[C@@H]2O)C[C@@H]2O[C@](O)(C[C@@H](O)C[C@@H](O)[C@H](O)CC[C@@H](O)C[C@@H](O)CC(=O)O[C@H]1C)C[C@H](O)[C@H]2C(=O)O [Amphotericin B] | inactive: 0.802 |
| CCOC(=O)C(C)(C)Oc1ccc(Cl)cc1 [Clofibrate (2-2-methyl-propionic acid ethyl ester)] | inactive: 0.922 |

| SMILES | cell-surface Lgr5 expression |
| --- | --- |
| CCC(NC(C)C)C(O)c1ccc(O)c(O)c1 (configuration not stated) [Isoetharine mesylate] | inactive: 1.19 |
| CCC(Cc1c(I)cc(I)c(N)c1I)C(=O)O (configuration not stated) [Iopanoic acid] | inactive: 1.18 |
| [Ca+2].[OH-].[OH-] [Calcium hydroxide] | inactive: 1.1 |
| CC(=O)[O-].CC(=O)[O-].CC(=O)[O-].[Sm+3] [Samarium(III) acetate hydrate] | inactive: 1.17 |
| CC1CCc2c(N3CCC(O)CC3)c(F)cc3c(=O)c(C(=O)O)cn1c23 (configuration not stated) [Nadifloxacin] | inactive: 0.884 |
| [Cl-].[Cl-].[Zn+2] [Zinc chloride] | inactive: 0.72 |
| Clc1ccc(COC(Cn2ccnc2)c2ccc(Cl)cc2Cl)c(Cl)c1 (configuration not stated) [Miconazole] | inactive: 0.826 |
| NC12CC3CC(CC(C3)C1)C2 [Amantadine] | inactive: 1.16 |
| NC12CC3CC(CC(C3)C1)C2 [Amantadine hydrochloride (1-Adamantanamine hydrochloride)] | inactive: 0.924 |
| O.O.O.O.O.O.O.O=S(=O)([O-])[O-].O=S(=O)([O-])[O-].O=S(=O)([O-])[O-].[Fe+3].[Fe+3] [Ferric sulfate heptahydrate] | inactive: 0.861 |
| COC(=O)c1ccc(O)c2nc3c(C=O)c(O)cc(O)c3nc12 [Lomofungin] | inactive: 0.884 |
| COc1ccc(C(=O)NCc2ccc(OCCN(C)C)cc2)cc1OC [Itopride HCl] | inactive: 0.884 |
| N.O=C(O)CC(O)(CC(=O)O)C(=O)O.[Fe+3] [Ferric ammonium citrate] | inactive: 1.06 |
| CC[C@@H]1/C=C(\C)C[C@H](C)C[C@H](OC)[C@H]2O[C@@](O)(C(=O)C(=O)N3CCCC[C@H]3C(=O)O[C@H](/C(C)=C/[C@@H]3CC[C@H](Cl)[C@H](OC)C3)[C@H](C)[C@@H](O)CC1=O)[C@H](C)C[C@@H]2OC [Pimecrolimus] | inactive: 0.952 |
| CCCCCCCCCCCCCCc1ccc(S(=O)(=O)O)cc1.OCl [Oxychlorosene] | inactive: 0.635 |
| Brc1c(NC2=NCCN2)ccc2nccnc12 [Brimonidine (UK 14,304)] | inactive: 0.449 |
| CN(C)CCOC(=O)COc1ccc(Cl)cc1 [Meclofenoxate (Centrophenoxine hydrochloride)] | inactive: 1.04 |
| CC(=O)[O-].CC(=O)[O-].[Mg+2] [Magnesium acetate] | inactive: 0.917 |
| Cc1ccc2c(Cl)cc(Cl)c(O)c2n1 [Chlorquinaldol (5,7-Dichloro-2-methyl-8-quinolinol)] | inactive: 0.931 |
| N=C(N)N/N=C/c1c(Cl)cccc1Cl [Guanabenz acetate] | inactive: 1.19 |
| COc1ccc(C[C@@H]2c3cc(OC)c(OC)cc3CC[N@+]2(C)CCC(=O)OCCCCCOC(=O)CC[N@@+]2(C)CCc3cc(OC)c(OC)cc3[C@H]2Cc2ccc(OC)c(OC)c2)cc1OC [Cisatracurium besylate] | inactive: 0.966 |
| OCCOCCN1CCN(C(c2ccccc2)c2ccc(Cl)cc2)CC1 (configuration not stated) [Hydroxyzine (Dihydrochloride)] | inactive: 0.654 |
| OCCOCCN1CCN(C(c2ccccc2)c2ccc(Cl)cc2)CC1 (configuration not stated) [Hydroxyzine] | inactive: 0.988 |

Exported as labelled records: part of the list above.
OC(CCCN1CCC(O)(c2ccc(Cl)cc2)CC1)c1ccc(F)cc1 (configuration not stated) [Haloperidol metabolite II]
  cell-surface Lgr5 expression: inactive: 1.18
Cn1ccnc1S [Methimazole]
  cell-surface Lgr5 expression: inactive: 0.738
Nc1c(Br)cc(Br)cc1CN[C@H]1CC[C@H](O)CC1 [Ambroxol hydrochloride]
  cell-surface Lgr5 expression: active: 1.54

Reprinted at random: 2 entries already listed

| SMILES | cell-surface Lgr5 expression |
| --- | --- |
| COc1ccc(C[C@@H]2c3cc(OC)c(OC)cc3CC[N@+]2(C)CCC(=O)OCCCCCOC(=O)CC[N@@+]2(C)CCc3cc(OC)c(OC)cc3[C@H]2Cc2ccc(OC)c(OC)c2)cc1OC [Cisatracurium besylate] | inactive: 0.966 |
| CC(=O)[O-].CC(=O)[O-].[Mg+2] [Magnesium acetate] | inactive: 0.917 |

(list continues)

| SMILES | cell-surface Lgr5 expression |
| --- | --- |
| C=CC1=C(C(=O)O)N2C(=O)[C@@H](NC(=O)/C(=N\OCC(=O)O)c3csc(N)n3)[C@H]2SC1 [Cefixime] | inactive: 0.726 |
| Cc1cc(-n2c(=O)[nH]c(=O)n(C)c2=O)ccc1Oc1ccc(SC(F)(F)F)cc1 [Toltrazuril] | inactive: 1.07 |
| CC(C)COC(=O)c1ccc(N)cc1 [Isobutamben (Isobutyl 4-aminobenzoate)] | inactive: 0.922 |
| O=C1N(c2ccccc2)c2ccccc2C1(Cc1ccncc1)Cc1ccncc1 [Linopirdine] | inactive: 0.871 |
| [I-].[K+] [Potassium iodide] | inactive: 1.02 |
| COc1ccc2[nH]c([S+]([O-])Cc3ncc(C)c(OC)c3C)nc2c1 (configuration not stated) [Omeprazole] | inactive: 1.01 |
| CC(=O)Nc1ccc(O)cc1 [Acetaminophen] | inactive: 1.24 |
| CO/N=C(\C(=O)N[C@@H]1C(=O)N2C(C(=O)O)=C(C[N+]3(C)CCCC3)CS[C@H]12)c1csc(N)n1 [Cefepime hydrochloride] | inactive: 0.86 |
| C=COCC [Ethyl vinyl ether] | inactive: 1.1 |
| CC(Oc1c(Cl)cccc1Cl)C1=NCCN1 (configuration not stated) [Lofexidine] | inactive: 1 |
| CCc1cccc2c3c([nH]c12)C(CC)(CC(=O)O)OCC3 (configuration not stated) [Etodolac] | inactive: 1.15 |
| Cc1noc(NS(=O)(=O)c2ccc(N)cc2)c1C [Sulfisoxazole] | inactive: 1.03 |
| CC[N+](CC)(CC)CCC(O)(c1ccccc1)C1CCCCC1 (configuration not stated) [Tridihexethyl chloride] | inactive: 1.12 |
| OC[C@H]1O[C@@H](O[C@H]2[C@H](O)[C@@H](O)[C@@H](O)O[C@@H]2CO)[C@H](O)[C@@H](O)[C@H]1O [alpha-D-Lactose monohydrate] | inactive: 0.93 |
| CC1(C)S[C@@H]2[C@H](NC(=O)[C@H](NC(=O)N3CCN(S(C)(=O)=O)C3=O)c3ccccc3)C(=O)N2[C@H]1C(=O)O [Mezlocillin sodium] | inactive: 1.11 |
| CCCCCCCN(CC)CCCC(O)c1ccc(NS(C)(=O)=O)cc1 (configuration not stated) [Ibutilide fumarate] | inactive: 1.06 |
| OC[C@@H](O)[C@@H](O[C@@H]1O[C@H](CO)[C@H](O)[C@H](O)[C@H]1O)[C@H](O)[C@@H](O)CO [Lactitol monohydrate] | inactive: 1.05 |
| c1ccc2[nH]c(-c3cscn3)nc2c1 [Thiabendazole] | inactive: 1.22 |
| CN1[C@@H](CC(=O)c2ccccc2)CCC[C@H]1C[C@H](O)c1ccccc1 [Lobeline (-) Hydrochloride] | inactive: 1.15 |
| NC(=O)NC(=O)Cc1ccccc1 [Phenacemide (Phenylacetylurea)] | inactive: 0.523 |
| O=C1OC2(c3ccc(O)cc3Oc3cc(O)ccc32)c2ccccc21 [Fluorescein] | inactive: 0.746 |
